Measurements: US20080269310A1, “Synergistic Combinations” (priority 2005, published 2008)
Some entries share one result that the patent states for a list of compounds.

Tested on: carrageenan-induced thermal hyperalgesia
Assay: rat carrageenan footpad thermal hyperalgesia assay (Hargreaves test)
Assay type: in vivo
Conditions: carprofen 1 mg/kg alone, SC
Procedure: The aim of this experiment was to characterize the anti-nociceptive and anti-inflammatory effects of gabapentin administered in combination with carprofen in the rat. In this example, gabapentin, carprofen, and the combination of gabapentin and carprofen were evaluated in a standard rat carrageenan footpad thermal hyperalgesia assay. This assay utilizes an extract of seaweed (carrageenan) that, when injected into the footpad of test animals, causes a sterile inflammation, thereby lowering the pain threshold. […]
Each data point represents the mean and standard error of mean. […] The theoretical dose-additive line for a 10:1 dose ratio was determined (dotted line) as described (Tallarida, 1992). The experimental determination of a 10:1 dose ratio was determined (gabapentin-carprofen mixture 10:1) and a shift to the left of the theoretical dose-additive line was found. […]
Dose-effect curves were first determined for (1) gabapentin by itself and (2) carprofen by itself. The ED50 value of each agent was determined, as was the time to peak effect. […]
Carrageenan-induced thermal hyperalgesia: Rats were acclimated to a testing chamber whose glass floor was maintained at 25° C. One hour later, a high intensity beam of light was focused through the glass on the ventral surface of each hind paw, and the latency to reflex withdrawal of the paw from the light beam was measured to the nearest 0.1 second. […]

**Q.** `CC(C(=O)O)c1ccc2c(c1)[nH]c1ccc(Cl)cc12` (stereo not drawn) [carprofen, 6-chloro-α-methyl-9H-carbazole-2-acetic acid] was tested. Which antihyperalgesic effect did it give?
**A.** ≤ 10%
